Data as given in PubChem BioAssay AID743454 (Peter MacCallum Cancer Centre, 2014).
The deposit covers about 18,000 reagents; shown is a part drawn at random. 450 of them (2.5%) were called active. 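Single biological run; no consistent viability z cut-off exists, so the class columns, not z-scores, define the calls.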

Assay: 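Search for knock-downs that restore vorinostat killing in resistant colon cancer cells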 (primary screen)
System: human HCT116-VR colon cancer cells, selected for vorinostat resistance
Reagents: siRNA pool against human genes, 40 nM siRNA pool
Duration: vorinostat for 24 h, read-out about 72 h after transfection
Treatment: vorinostat at 2.5 µM final
Measurement: 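Two measures, CellTiter-Fluor viability and luminescent caspase 3/7 activity, each as fold change against same-plate mock wells, mean of duplicates, then screen-wide robust z-score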
Direction: viability robust z-score: higher = more viable cells than screen typical; caspase robust z-score: higher = more caspase 3/7 activity than screen typical
Hit rule: 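a knock-down is a hit when classed RV1 or RV2 for lowered viability, or CA1 or CA2 for caspase activation; those lethal without drug were dropped; hits were retested singly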

| gene symbol | viability hit class | caspase hit class | viability robust z-score | caspase robust z-score | call |
| --- | --- | --- | --- | --- | --- |
| PRKAA2 | no change | CA1 (caspase activation) | -2.11 | 5.29 | active |
| LINC02694 | no change | no change | 0.85 | -0.77 | inactive |
| SLC39A5 | no change | no change | -1.17 | 0.76 | inactive |
| DNMT3B | no change | no change | -0.35 | -0.02 | inactive |
| BAIAP2 | no change | no change | 1.19 | -0.44 | inactive |
| TEX15 | no change | no change | -0.08 | 0.41 | inactive |
| PTDSS2 | no change | no change | -0.41 | 0.2 | inactive |
| PSG4 | no change | no change | 0.15 | 0.07 | inactive |
| MRFAP1L1 | no change | no change | -1.13 | 0.67 | inactive |
| ACKR4 | no change | no change | 0.3 | -1.09 | inactive |
| NXF1 | no change | no change | -5.18 | 0.81 | inactive |
| HIRA | no change | no change | -1.54 | -0.7 | inactive |
| MAP4K1 | no change | no change | -1.56 | 1 | inactive |
| SPDL1 | no change | no change | -0.84 | 0.88 | inactive |
| ZNF444 | no change | no change | -0.64 | -0.02 | inactive |
| MAPDA | no change | no change | 0.59 | -0.34 | inactive |
| SP140L | no change | no change | -0.06 | 2.86 | inactive |
| PTER | no change | no change | 0.58 | -0.83 | inactive |
| EVI5 | no change | no change | 2.67 | 1.28 | inactive |
| VAX1 | no change | CA1 (caspase activation) | -0.3 | 6.54 | active |
| E2F3 | no change | no change | 0.16 | 0.91 | inactive |
| RAP2A | no change | no change | 0.18 | 0.69 | inactive |
| ZNF552 | no change | no change | -1.28 | 0.88 | inactive |
| ASRGL1 | no change | no change | 1.15 | -0.04 | inactive |

Looked up above.
Value of ZNF552 in “caspase hit class”: no change
Under “caspase hit class”, PTDSS2 shows no change

Additional results:
| gene symbol | viability hit class | caspase hit class | viability robust z-score | caspase robust z-score | call |
| --- | --- | --- | --- | --- | --- |
| ACKR1 | no change | no change | -2.38 | -0.01 | inactive |
| THRA | no change | no change | 0.9 | -0.45 | inactive |
| PLCD3 | no change | no change | 0.19 | -0.9 | inactive |
| GSG1L | no change | no change | -0.3 | -0.8 | inactive |
| DDHD1 | no change | no change | 0.16 | -0.12 | inactive |
| GNRHR | no change | no change | 0.37 | -0.44 | inactive |
| BCAS1 | no change | no change | 1.06 | -0.4 | inactive |
| ZNF71 | no change | no change | -0.56 | 3.82 | inactive |
| CCDC190 | no change | no change | 0.03 | -0.91 | inactive |
| ZKSCAN5 | no change | no change | -0.86 | 0.86 | inactive |
| IL18 | no change | no change | -0.44 | 1.4 | inactive |
| DMPK | no change | no change | -0.17 | 1.78 | inactive |
| MAGEF1 | no change | no change | 0.78 | -0.23 | inactive |
| PRKCZ | no change | no change | -1.4 | -0.99 | inactive |
| TRAF5 | no change | no change | 1.16 | 4.51 | inactive |
